# According to PubChem BioAssay AID1159583 (ICCB-Longwood Screening Facility, Harvard Medical School, 2016):
# The list shows a part of the results.
# Assay: hypoxia reporter signal reduction in M. tuberculosis – fluorescence, absorbance growth readout, primary screen (AID 1159583)
# Conditions: M. tuberculosis hypoxia-regulated fluorescent reporter, measured here: M. tuberculosis growth (absorbance), stronger effect = higher value, concentration not given here
row,Structure (SMILES),growth inhibition [%]
1,COc1ccc(C(=O)NCC2(N3CCOCC3)CCCCC2)cc1OC,13.8
2,COc1cc(C(=O)NCC2(N3CCOCC3)CCCCC2)cc(OC)c1C,74.8
3,O=C(NCC1(N2CCOCC2)CCCCC1)c1cc(Br)ccc1Cl,30.2
4,CCc1cc(C(=O)NCC2(N3CCCCC3)CCCCC2)sc1C,-1.34
5,O=C(OC1CN2CCC1CC2)C1c2ccccc2C=Cc2ccccc21 (configuration not stated),6.23
6,CCOC(=O)N1CCC(Nc2ccc(C)cc2)CC1,-6.33
7,N#Cc1ccc(C(=O)NCC2(N3CCCCC3)CCCCC2)cc1,1.54
8,CC(C)(C)OC(=O)N1CCC(N(C(=O)c2ccccc2)c2ccc(Cl)cc2)CC1,9.91
9,CN(C)C1(CNC(=O)c2cccc(C#N)c2)CCCCC1,-2.34
10,CCCN1CCC(Nc2cc(OC)cc(OC)c2)CC1,3.23
11,Fc1ccccc1NC1CCN(Cc2ccccc2)CC1,-0.132
12,Cc1ccc(C(=O)NCC2(N3CCCCC3)CCCCC2)o1,-0.00727
13,Cc1ccc(NC2(C#N)CCN(Cc3ccccc3)CC2)cc1,7.97
14,CC(=O)N(c1ccccc1)C1CCNCC1,0.589
15,COc1cc(OC)cc(C(=O)NCC2(N3CCCCC3)CCCCC2)c1,-3.22
16,CN(C)c1ccc(C(=O)NCC2(N3CCCCC3)CCCCC2)cc1,5.91
17,Cn1c(=O)[nH]cc(N(CCCl)CCCl)c1=O,7.51
18,O=C(NCC1(N2CCCCC2)CCCCC1)c1ccco1,11.8
19,CCN1CCC(Nc2cccc(F)c2)CC1,4.03
20,Cc1ccccc1NC1(C#N)CCN(Cc2ccccc2)CC1,9.35
21,O=C(O)C1(Nc2ccccc2)CCN(Cc2ccccc2)CC1,8.63
22,CC(C)(C)OC(=O)N1CCC(Nc2ccccc2)CC1,8.1
23,CCCOc1ccc(C(=O)NCC2(N(C)C)CCCCC2)cc1,9.43

row,Structure (SMILES),growth inhibition [%]
1,CN1CCC(Nc2ccc(F)c(Cl)c2)CC1,-0.117
2,CCOc1ncccc1C(=O)NCC1(N2CCOCC2)CCCCC1,1.86
3,CN1CCC(Nc2ccc(Cl)cc2)CC1,10.9
4,COc1cccc(C(=O)N(c2cc(C)cc(C)c2)C2CCN(C(=O)OC(C)(C)C)CC2)c1,-4.42
5,COc1cc(OC)cc(C(=O)NCC2(N3CCOCC3)CCCCC2)c1,10.7
6,Cc1cccc(NC2(C#N)CCN(Cc3ccccc3)CC2)c1,8.89
7,CSc1ccccc1C(=O)NCC1(N2CCCCC2)CCCCC1,1.15
8,COc1ccc(C(=O)NCC2(N3CCCCC3)CCCCC2)c(OC)c1OC,3.29
9,CC(C)(C)OC(=O)N1CCC(N(C(=O)c2ccccc2)c2ccc(F)cc2)CC1,1.65
10,COc1ccc(C(=O)NCC2(N3CCCCC3)CCCCC2)cc1,12.8
11,O=C(NCC1(N2CCCCC2)CCCCC1)c1cccs1,-1.48
12,O=C(NCC1(N2CCCCC2)CCCCC1)c1ccc(=O)[nH]c1,-3.39
13,COc1ccc(Cl)cc1C(=O)NCC1(N2CCOCC2)CCCCC1,2.83
14,O=C(NCC1(N2CCCCC2)CCCCC1)c1ccc(Cl)s1,1.07
15,N#CC1(Nc2ccccc2)CCN(Cc2ccccc2)CC1,-4.54
16,O=C(OC1CN2CCC1CC2)C1c2ccccc2Oc2ccccc21 (configuration not stated),25.6
17,CCOC(=O)N1CCC(Nc2ccc(OC)cc2)CC1,1.32
18,Cc1cc(C)cc(N(C(=O)c2ccccc2)C2CCN(C(=O)OC(C)(C)C)CC2)c1,-9.67
19,O=C(NCC1(N2CCCCC2)CCCCC1)c1ccc(Cl)nc1,3.92
20,CCOC(=O)N1CCC(Nc2ccc(F)cc2)CC1,5.98
21,COc1ccc(NC2CCN(CCc3ccccc3)CC2)c(OC)c1,-8.72
22,CCCCOc1ccc(C(=O)NCC2(N3CCOCC3)CCCCC2)cc1,12.3
23,O=P1(N(CCCl)CCCl)SCCCS1,7.97

row,Structure (SMILES),growth inhibition [%]
1,O=C(NCC1(N2CCCCC2)CCCCC1)c1ccc(F)cc1,-1.84
2,CCOc1ccc(C)cc1CN(CCCl)CCCl,-5.02
3,CCOC(=O)N1CCC(Nc2cccc(C)c2)CC1,6.97
4,COc1cc(C(=O)NCC2(N(C)C)CCCCC2)ccc1OC(F)F,2.75
5,N#CC1(Nc2ccccc2)CCN(CCc2ccccc2)CC1,7.16
6,CCN1CCC(Nc2ccc(Cl)cc2)CC1,2
7,O=C(NCC1(N2CCCCC2)CCCCC1)c1cccc([N+](=O)[O-])c1,7.38
8,CSc1ccc(C(=O)NCC2(N3CCOCC3)CCCCC2)cc1,-4.92
9,O=C(NCC1(N2CCCCC2)CCCCC1)c1ccc(OC(F)F)cc1,1.97
10,COc1cc(C(=O)NCC2(N3CCCCC3)CCCCC2)ccc1OC(F)F,6.64
11,COc1ccc(NC2CCN(C(=O)OC(C)(C)C)CC2)cc1,11.6
12,CC(C)c1ccc(C(=O)NCC2(N3CCOCC3)CCCCC2)cc1,1.9
13,CN1CCN(CCOC(=O)C(O)(c2ccccc2)c2ccccc2)CC1,0.803
14,O=C(NCC1(N2CCCCC2)CCCCC1)c1cccc(C(F)(F)F)c1,3.64
15,O=C(NCC1(N2CCOCC2)CCCCC1)c1cc(F)c(F)cc1Cl,3.42
16,COc1cc(OC)c(C(=O)NCC2(N(C)C)CCCCC2)cc1OC,-5.37
17,CC(C)c1ccc(NC2CCN(C(=O)OC(C)(C)C)CC2)cc1,12.5
18,CN(C)c1cccc(C(=O)NCC2(N3CCCCC3)CCCCC2)c1,5.24
19,COc1ccc(CN(CCCl)CCCl)cc1Cl,9.49
20,CCCOc1ccc(C(=O)NCC2(N(C)C)CCCCC2)cc1OC,-0.117
21,O=C(NCC1(N2CCCCC2)CCCCC1)c1cncc(Br)c1,0.654
